Data published in publication PMC10803214.
These are yes or no findings as the source states them, for the method shown. In cells and extracts the contact can be indirect. A result given as binding can be weak or reduced; the word gives no strength.

The chains behind the UniProt entries cited, without tags or fusion partners. Where a name states a change or a piece, a line headed by the entry shows the natural chain unless it says otherwise.
UniProt Q8SY69: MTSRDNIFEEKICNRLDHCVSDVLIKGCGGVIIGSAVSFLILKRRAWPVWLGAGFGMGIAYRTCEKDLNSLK

Tests used:
[1] = target: T1, DmMIC60 (endogenous, fly mitochondria) (D. melanogaster (endogenous in flies)) (UniProt P91928); experiment: co-IP; mitochondria isolated from WT flies (1 mg), solubilised with 1% digitonin; antisera on protein A-Sepharose, 1 h at 4°C, 10 washes with 0.3% digitonin, eluted with 0.1 M glycine pH 2.8; immunoblot; DmMIC60 and CG41128 used as baits
T1 sequence: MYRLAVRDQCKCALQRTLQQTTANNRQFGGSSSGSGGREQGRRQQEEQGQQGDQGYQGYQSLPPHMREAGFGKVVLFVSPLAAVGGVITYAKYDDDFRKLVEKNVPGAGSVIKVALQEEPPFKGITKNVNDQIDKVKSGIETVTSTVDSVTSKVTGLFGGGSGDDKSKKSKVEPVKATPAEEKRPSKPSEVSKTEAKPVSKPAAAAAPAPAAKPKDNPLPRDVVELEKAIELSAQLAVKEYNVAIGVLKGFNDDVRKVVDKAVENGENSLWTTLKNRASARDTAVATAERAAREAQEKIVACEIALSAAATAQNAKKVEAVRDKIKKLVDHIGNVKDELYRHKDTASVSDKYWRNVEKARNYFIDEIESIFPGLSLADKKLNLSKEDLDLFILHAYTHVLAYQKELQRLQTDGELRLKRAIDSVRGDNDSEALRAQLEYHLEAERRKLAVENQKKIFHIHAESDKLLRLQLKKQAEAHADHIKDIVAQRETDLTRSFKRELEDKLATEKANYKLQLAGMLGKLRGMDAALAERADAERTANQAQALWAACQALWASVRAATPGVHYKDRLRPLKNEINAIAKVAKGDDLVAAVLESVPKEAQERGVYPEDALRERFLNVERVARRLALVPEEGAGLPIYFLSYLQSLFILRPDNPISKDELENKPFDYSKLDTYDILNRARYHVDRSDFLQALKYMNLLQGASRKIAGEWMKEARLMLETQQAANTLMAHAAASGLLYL

[2] = target: Dmel_CG41128/MINOS1b/DmMIC10b (endogenous, fly mitochondria) (D. melanogaster (endogenous in flies)) (UniProt Q8SY69); experiment: as above

How did the binding [1] turn out when “Dmel_CG41128/MINOS1b/DmMIC10b (endogenous, fly mitochondria) (from UniProt Q8SY69)” was run?
Its binding is “binds”.

B1: DmMIC13 (endogenous, fly mitochondria) (protein, UniProt Q9VVH3 1-122)
chain: MVLGFLVRGGLVAATVYYTQKVGIWGDSDQTDKLYNDIKSELRPHVQKLEKQLPFEVPQLPKTGEMRFLAKHYYNEGVKNTFRFIHMLPCYAGRGLKKVKDTFQDFAQSPAIAGGAESSPPK
B1 was tested. Which binding [2] did it give?
The binding was “binds”.

B2: DmMIC60 (endogenous, fly mitochondria) (protein, UniProt P91928 1-739)
chain: MYRLAVRDQCKCALQRTLQQTTANNRQFGGSSSGSGGREQGRRQQEEQGQQGDQGYQGYQSLPPHMREAGFGKVVLFVSPLAAVGGVITYAKYDDDFRKLVEKNVPGAGSVIKVALQEEPPFKGITKNVNDQIDKVKSGIETVTSTVDSVTSKVTGLFGGGSGDDKSKKSKVEPVKATPAEEKRPSKPSEVSKTEAKPVSKPAAAAAPAPAAKPKDNPLPRDVVELEKAIELSAQLAVKEYNVAIGVLKGFNDDVRKVVDKAVENGENSLWTTLKNRASARDTAVATAERAAREAQEKIVACEIALSAAATAQNAKKVEAVRDKIKKLVDHIGNVKDELYRHKDTASVSDKYWRNVEKARNYFIDEIESIFPGLSLADKKLNLSKEDLDLFILHAYTHVLAYQKELQRLQTDGELRLKRAIDSVRGDNDSEALRAQLEYHLEAERRKLAVENQKKIFHIHAESDKLLRLQLKKQAEAHADHIKDIVAQRETDLTRSFKRELEDKLATEKANYKLQLAGMLGKLRGMDAALAERADAERTANQAQALWAACQALWASVRAATPGVHYKDRLRPLKNEINAIAKVAKGDDLVAAVLESVPKEAQERGVYPEDALRERFLNVERVARRLALVPEEGAGLPIYFLSYLQSLFILRPDNPISKDELENKPFDYSKLDTYDILNRARYHVDRSDFLQALKYMNLLQGASRKIAGEWMKEARLMLETQQAANTLMAHAAASGLLYL
Which binding [2] does the source give for B2 here?
Its binding is “binds”.
